One assay deals with T1, Myc-Plk4 (UniProt O00444).
T1 sequence: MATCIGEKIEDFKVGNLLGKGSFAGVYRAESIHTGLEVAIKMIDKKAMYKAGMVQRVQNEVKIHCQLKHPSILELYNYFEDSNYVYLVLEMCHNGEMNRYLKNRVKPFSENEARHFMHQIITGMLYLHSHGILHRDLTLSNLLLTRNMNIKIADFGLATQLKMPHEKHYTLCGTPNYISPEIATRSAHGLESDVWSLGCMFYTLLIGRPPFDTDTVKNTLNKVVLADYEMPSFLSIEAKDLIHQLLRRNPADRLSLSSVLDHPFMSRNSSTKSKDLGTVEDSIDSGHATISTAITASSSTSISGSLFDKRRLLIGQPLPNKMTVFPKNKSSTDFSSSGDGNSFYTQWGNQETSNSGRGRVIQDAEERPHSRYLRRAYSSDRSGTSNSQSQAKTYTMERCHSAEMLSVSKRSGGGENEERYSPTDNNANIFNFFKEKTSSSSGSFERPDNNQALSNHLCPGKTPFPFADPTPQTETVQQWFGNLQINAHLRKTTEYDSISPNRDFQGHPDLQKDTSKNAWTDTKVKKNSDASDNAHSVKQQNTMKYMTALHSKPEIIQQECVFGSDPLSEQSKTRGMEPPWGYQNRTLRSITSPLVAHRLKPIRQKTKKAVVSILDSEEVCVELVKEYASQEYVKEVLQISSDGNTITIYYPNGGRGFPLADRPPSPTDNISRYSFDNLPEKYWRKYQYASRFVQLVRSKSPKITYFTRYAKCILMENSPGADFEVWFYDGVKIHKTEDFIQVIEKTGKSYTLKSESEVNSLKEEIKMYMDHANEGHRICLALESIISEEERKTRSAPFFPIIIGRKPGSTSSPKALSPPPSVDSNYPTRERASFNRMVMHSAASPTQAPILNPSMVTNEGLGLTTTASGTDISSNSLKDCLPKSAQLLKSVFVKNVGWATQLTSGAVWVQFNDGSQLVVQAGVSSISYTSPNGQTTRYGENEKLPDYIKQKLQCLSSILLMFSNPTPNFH
Kind of assay: co-IP; HEK293T cells co-expressing Myc-Plk4 and GFP-Cep131; Myc-magnetic beads, 2 h at 4 °C; TBSN buffer (50 mM Tris-HCl pH 8.0, 120 mM NaCl, 5 mM EGTA, 1.5 mM EDTA, 0.5% NP-40); immunoblotting (Fig. 3a).

Assay [1] addresses T2, Endogenous STIL (human (endogenous in U2OS)) (UniProt Q15468).
T2 sequence: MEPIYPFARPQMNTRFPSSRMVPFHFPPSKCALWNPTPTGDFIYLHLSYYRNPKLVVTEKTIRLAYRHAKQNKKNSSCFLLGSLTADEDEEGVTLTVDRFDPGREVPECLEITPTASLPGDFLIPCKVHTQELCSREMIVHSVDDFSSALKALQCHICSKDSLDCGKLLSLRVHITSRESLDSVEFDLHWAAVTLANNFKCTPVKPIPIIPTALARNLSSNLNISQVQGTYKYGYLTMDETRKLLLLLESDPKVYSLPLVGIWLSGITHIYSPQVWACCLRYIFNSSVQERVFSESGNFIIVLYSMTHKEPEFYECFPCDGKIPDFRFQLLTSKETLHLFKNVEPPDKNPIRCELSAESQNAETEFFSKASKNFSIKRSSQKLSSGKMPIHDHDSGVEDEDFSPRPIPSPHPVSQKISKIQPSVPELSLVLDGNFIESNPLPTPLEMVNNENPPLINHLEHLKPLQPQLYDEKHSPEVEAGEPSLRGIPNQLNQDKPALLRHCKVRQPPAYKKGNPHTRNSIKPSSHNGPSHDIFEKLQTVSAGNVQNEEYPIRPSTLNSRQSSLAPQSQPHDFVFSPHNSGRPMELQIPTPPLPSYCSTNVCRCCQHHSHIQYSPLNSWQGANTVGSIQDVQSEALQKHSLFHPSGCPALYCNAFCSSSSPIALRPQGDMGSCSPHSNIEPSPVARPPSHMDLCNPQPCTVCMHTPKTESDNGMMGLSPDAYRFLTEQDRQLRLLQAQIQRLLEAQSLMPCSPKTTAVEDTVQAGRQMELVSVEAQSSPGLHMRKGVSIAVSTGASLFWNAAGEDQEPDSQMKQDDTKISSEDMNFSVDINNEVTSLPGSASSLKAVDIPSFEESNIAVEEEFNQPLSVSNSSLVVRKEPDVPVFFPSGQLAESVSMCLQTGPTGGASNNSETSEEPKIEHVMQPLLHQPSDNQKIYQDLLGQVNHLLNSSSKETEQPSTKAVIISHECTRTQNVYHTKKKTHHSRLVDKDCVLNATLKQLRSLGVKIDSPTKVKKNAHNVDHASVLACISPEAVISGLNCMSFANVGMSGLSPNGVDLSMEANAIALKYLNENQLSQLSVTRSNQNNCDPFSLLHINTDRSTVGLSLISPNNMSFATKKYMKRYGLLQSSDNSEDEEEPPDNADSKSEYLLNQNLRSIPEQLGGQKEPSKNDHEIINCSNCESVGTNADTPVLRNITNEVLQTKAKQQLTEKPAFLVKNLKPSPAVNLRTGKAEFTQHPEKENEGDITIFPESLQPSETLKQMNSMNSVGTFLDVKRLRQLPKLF
Put plainly: co-IP; endogenous STIL extracted from U2OS cells immunoprecipitated; cells with or without shPlk4; immunoblotting (Fig. 5f).

Assay [2] has as its target T3, Endogenous Plk4 (human (endogenous in U2OS)) (UniProt O00444).
T3 sequence: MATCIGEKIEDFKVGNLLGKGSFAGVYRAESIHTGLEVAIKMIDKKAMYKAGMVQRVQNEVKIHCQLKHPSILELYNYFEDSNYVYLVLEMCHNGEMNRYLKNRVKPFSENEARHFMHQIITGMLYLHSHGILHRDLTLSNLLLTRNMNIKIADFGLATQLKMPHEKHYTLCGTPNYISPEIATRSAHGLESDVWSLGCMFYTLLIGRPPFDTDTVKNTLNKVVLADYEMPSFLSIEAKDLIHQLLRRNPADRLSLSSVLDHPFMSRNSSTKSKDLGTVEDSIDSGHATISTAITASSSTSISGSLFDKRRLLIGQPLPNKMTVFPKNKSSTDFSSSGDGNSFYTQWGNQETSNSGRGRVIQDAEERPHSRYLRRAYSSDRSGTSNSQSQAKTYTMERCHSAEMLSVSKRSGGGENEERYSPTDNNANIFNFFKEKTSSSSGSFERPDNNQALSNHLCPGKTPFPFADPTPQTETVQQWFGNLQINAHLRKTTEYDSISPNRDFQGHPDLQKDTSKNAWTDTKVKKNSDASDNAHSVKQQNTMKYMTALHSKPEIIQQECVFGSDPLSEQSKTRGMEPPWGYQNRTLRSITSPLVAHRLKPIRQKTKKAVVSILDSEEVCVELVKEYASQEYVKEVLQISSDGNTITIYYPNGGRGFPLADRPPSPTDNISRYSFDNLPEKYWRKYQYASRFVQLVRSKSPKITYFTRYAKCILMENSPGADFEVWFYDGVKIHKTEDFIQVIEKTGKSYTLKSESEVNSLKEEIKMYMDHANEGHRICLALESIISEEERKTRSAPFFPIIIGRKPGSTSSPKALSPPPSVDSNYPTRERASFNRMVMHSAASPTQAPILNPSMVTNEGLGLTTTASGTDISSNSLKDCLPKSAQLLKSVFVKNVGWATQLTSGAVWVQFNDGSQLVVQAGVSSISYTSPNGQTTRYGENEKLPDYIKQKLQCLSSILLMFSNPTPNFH
Put plainly: co-IP; endogenous Plk4 extracted from U2OS cells immunoprecipitated by anti-Plk4; immunoblotting (Fig. 3b).

This is an account of results in publication PMC6662699.

These are yes or no findings as the source states them, for the method shown. Binding seen in cells or lysates may run through a third protein. Some results given as binding are weak or reduced against the parent protein; the word gives no strength. For part of these data: Sequences can lack the tags named with a protein.

B1: GFP-Cep131 (protein, UniProt Q9UPN4 1-1083)
chain: MKGTRAIGSVPERSPAGVDLSLTGLPPPVSRRPGSAATTKPIVRSVSVVTGSEQKRKVLEATGPGGSQAINNLRRSNSTTQVSQPRSGSPRPTEPTDFLMLFEGSPSGKKRPASLSTAPSEKGATWNVLDDQPRGFTLPSNARSSSALDSPAGPRRKECTVALAPNFTANNRSNKGAVGNCVTTMVHNRYTPSERAPPLKSSNQTAPSLNNIIKAATCEGSESSGFGKLPKNVSSATHSARNNTGGSTGLPRRKEVTEEEAERFIHQVNQATVTIQRWYRHQVQRRGAGAARLEHLLQAKREEQRQRSGEGTLLDLHQQKEAARRKAREEKARQARRAAIQELQQKRALRAQKASTAERGPPENPRETRVPGMRQPAQELSPTPGGTAHQALKANNTGGGLPAAGPGDRCLPTSDSSPEPQQPPEDRTQDVLAQDAAGDNLEMMAPSRGSAKSRGPLEELLHTLQLLEKEPDVLPRPRTHHRGRYAWASEVTTEDDASSLTADNLEKFGKLSAFPEPPEDGTLLSEAKLQSIMSFLDEMEKSGQDQLDSQQEGWVPEAGPGPLELGSEVSTSVMRLKLEVEEKKQAMLLLQRALAQQRDLTARRVKETEKALSRQLQRQREHYEATIQRHLAFIDQLIEDKKVLSEKCEAVVAELKQEDQRCTERVAQAQAQHELEIKKLKELMSATEKARREKWISEKTKKIKEVTVRGLEPEIQKLIARHKQEVRRLKSLHEAELLQSDERASQRCLRQAEELREQLEREKEALGQQERERARQRFQQHLEQEQWALQQQRQRLYSEVAEERERLGQQAARQRAELEELRQQLEESSSALTRALRAEFEKGREEQERRHQMELNTLKQQLELERQAWEAGRTRKEEAWLLNREQELREEIRKGRDKEIELVIHRLEADMALAKEESEKAAESRIKRLRDKYEAELSELEQSERKLQERCSELKGQLGEAEGENLRLQGLVRQKERALEDAQAVNEQLSSERSNLAQVIRQEFEDRLAASEEETRQAKAELATLQARQQLELEEVHRRVKTALARKEEAVSSLRTQHEAAVKRADHLEELLEQHRRPTPSTK
Consider B1, for which, in the assay with Myc-Plk4, the binding result is “binds”.

B2: Endogenous Cep131 (protein, UniProt Q9UPN4 1-1083)
chain: MKGTRAIGSVPERSPAGVDLSLTGLPPPVSRRPGSAATTKPIVRSVSVVTGSEQKRKVLEATGPGGSQAINNLRRSNSTTQVSQPRSGSPRPTEPTDFLMLFEGSPSGKKRPASLSTAPSEKGATWNVLDDQPRGFTLPSNARSSSALDSPAGPRRKECTVALAPNFTANNRSNKGAVGNCVTTMVHNRYTPSERAPPLKSSNQTAPSLNNIIKAATCEGSESSGFGKLPKNVSSATHSARNNTGGSTGLPRRKEVTEEEAERFIHQVNQATVTIQRWYRHQVQRRGAGAARLEHLLQAKREEQRQRSGEGTLLDLHQQKEAARRKAREEKARQARRAAIQELQQKRALRAQKASTAERGPPENPRETRVPGMRQPAQELSPTPGGTAHQALKANNTGGGLPAAGPGDRCLPTSDSSPEPQQPPEDRTQDVLAQDAAGDNLEMMAPSRGSAKSRGPLEELLHTLQLLEKEPDVLPRPRTHHRGRYAWASEVTTEDDASSLTADNLEKFGKLSAFPEPPEDGTLLSEAKLQSIMSFLDEMEKSGQDQLDSQQEGWVPEAGPGPLELGSEVSTSVMRLKLEVEEKKQAMLLLQRALAQQRDLTARRVKETEKALSRQLQRQREHYEATIQRHLAFIDQLIEDKKVLSEKCEAVVAELKQEDQRCTERVAQAQAQHELEIKKLKELMSATEKARREKWISEKTKKIKEVTVRGLEPEIQKLIARHKQEVRRLKSLHEAELLQSDERASQRCLRQAEELREQLEREKEALGQQERERARQRFQQHLEQEQWALQQQRQRLYSEVAEERERLGQQAARQRAELEELRQQLEESSSALTRALRAEFEKGREEQERRHQMELNTLKQQLELERQAWEAGRTRKEEAWLLNREQELREEIRKGRDKEIELVIHRLEADMALAKEESEKAAESRIKRLRDKYEAELSELEQSERKLQERCSELKGQLGEAEGENLRLQGLVRQKERALEDAQAVNEQLSSERSNLAQVIRQEFEDRLAASEEETRQAKAELATLQARQQLELEEVHRRVKTALARKEEAVSSLRTQHEAAVKRADHLEELLEQHRRPTPSTK
Regarding B2, the binding result in assay [1] and in assay [2] was “binds” in each case.
